Measurements published in the supplement of paper PMC10849652.
This is one part of the list.

By UniProt entry, the sequences of proteins in these tests, tags left out. Where a name states a change or a piece, a line headed by the entry shows the natural chain unless it says otherwise.
UniProt O75575: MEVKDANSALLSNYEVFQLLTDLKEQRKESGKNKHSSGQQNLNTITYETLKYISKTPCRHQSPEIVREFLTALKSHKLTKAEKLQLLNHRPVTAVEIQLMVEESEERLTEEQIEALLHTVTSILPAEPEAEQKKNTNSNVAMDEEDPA
UniProt Q49AN0: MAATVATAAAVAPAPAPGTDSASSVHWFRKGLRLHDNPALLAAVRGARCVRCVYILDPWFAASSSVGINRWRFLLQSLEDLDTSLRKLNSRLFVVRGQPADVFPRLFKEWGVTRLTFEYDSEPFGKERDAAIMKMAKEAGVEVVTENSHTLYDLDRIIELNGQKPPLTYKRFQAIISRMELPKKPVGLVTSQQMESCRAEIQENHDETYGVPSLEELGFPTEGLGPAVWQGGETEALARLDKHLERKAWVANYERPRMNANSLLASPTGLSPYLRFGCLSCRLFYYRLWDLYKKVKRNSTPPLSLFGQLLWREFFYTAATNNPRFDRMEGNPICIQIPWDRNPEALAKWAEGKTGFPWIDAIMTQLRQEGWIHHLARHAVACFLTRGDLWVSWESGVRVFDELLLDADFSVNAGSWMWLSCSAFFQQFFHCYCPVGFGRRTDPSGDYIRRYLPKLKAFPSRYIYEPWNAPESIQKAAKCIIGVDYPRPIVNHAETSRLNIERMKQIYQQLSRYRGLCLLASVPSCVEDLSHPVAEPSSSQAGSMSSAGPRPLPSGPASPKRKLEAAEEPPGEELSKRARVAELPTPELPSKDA
UniProt Q14061: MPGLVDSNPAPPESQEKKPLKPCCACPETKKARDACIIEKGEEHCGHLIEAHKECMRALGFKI
UniProt P29762, whole entry, looked up: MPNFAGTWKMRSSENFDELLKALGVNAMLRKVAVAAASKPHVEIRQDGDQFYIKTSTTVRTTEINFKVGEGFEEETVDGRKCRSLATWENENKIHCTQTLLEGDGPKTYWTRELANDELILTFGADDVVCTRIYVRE
UniProt Q7Z4G1, whole entry, looked up: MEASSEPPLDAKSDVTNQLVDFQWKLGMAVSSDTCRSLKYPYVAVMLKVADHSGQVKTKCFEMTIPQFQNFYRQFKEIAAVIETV
UniProt Q9HCH3: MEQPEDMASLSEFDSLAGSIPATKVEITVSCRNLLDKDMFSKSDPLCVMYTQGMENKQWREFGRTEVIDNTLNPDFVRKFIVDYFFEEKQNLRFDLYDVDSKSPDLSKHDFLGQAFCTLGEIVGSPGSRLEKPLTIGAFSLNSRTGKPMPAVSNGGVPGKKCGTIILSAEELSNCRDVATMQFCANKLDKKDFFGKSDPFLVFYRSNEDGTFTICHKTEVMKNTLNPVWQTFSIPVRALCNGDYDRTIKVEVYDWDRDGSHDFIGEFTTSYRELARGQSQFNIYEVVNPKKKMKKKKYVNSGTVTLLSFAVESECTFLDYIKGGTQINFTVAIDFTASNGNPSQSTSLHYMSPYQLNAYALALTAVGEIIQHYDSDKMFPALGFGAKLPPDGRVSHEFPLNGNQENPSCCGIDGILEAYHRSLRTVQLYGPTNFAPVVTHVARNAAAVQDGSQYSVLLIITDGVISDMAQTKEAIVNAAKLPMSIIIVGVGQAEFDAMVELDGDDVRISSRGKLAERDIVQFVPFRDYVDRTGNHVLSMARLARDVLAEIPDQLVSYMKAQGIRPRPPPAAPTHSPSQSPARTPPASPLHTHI
UniProt Q6QEF8, whole entry, looked up: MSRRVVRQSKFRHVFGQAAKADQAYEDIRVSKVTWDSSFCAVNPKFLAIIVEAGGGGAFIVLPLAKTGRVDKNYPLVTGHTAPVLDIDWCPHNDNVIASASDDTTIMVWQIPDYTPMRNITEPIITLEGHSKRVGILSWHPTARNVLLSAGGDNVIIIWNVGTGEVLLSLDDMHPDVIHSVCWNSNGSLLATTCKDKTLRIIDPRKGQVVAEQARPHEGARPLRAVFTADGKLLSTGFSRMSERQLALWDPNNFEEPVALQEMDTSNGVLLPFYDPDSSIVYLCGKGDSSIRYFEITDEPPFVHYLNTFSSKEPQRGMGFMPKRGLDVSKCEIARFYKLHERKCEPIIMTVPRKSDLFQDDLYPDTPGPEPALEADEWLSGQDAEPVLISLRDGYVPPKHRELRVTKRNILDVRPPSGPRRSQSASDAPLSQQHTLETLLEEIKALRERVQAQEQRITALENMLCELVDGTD
UniProt Q8N6G5: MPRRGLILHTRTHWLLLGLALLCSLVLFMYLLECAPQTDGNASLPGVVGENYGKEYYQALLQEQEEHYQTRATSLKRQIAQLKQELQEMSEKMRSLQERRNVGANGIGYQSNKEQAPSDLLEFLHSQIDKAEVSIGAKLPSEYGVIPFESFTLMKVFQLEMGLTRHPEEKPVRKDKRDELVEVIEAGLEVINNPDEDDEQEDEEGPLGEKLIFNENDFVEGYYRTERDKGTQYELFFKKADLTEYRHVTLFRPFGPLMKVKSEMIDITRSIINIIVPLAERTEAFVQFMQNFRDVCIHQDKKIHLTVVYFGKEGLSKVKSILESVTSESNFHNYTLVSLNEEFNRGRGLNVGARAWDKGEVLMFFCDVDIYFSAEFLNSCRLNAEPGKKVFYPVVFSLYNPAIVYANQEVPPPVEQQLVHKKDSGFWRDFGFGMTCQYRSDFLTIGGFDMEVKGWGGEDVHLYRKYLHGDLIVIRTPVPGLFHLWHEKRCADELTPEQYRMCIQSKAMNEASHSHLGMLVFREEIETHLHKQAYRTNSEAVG
UniProt Q9BWP8: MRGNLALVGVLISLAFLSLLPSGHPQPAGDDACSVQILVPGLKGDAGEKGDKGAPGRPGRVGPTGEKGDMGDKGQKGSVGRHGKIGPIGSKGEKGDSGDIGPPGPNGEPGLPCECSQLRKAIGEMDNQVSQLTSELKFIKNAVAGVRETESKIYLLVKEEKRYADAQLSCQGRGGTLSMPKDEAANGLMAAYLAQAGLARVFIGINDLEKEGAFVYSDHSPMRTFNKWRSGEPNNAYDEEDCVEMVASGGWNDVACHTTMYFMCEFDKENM
UniProt O14810: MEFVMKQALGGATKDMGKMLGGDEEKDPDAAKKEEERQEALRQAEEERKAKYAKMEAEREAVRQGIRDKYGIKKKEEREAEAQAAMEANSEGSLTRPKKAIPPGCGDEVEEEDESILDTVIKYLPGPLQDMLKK
UniProt Q9NX08, whole entry, looked up: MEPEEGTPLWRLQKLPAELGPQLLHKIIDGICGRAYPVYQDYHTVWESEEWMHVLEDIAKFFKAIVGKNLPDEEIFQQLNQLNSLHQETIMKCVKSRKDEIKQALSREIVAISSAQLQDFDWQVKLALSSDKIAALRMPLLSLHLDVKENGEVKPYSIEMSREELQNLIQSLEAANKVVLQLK
UniProt Q14894: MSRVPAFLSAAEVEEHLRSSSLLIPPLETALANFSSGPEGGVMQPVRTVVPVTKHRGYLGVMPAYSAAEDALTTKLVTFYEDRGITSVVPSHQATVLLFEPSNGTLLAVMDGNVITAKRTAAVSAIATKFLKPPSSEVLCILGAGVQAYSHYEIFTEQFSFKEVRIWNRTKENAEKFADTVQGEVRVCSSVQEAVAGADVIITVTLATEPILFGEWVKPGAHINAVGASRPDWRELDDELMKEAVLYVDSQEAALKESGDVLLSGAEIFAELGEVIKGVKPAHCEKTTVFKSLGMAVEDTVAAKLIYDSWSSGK
UniProt Q96I36: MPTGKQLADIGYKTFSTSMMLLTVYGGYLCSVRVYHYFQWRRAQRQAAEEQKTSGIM
UniProt P02458, whole entry, looked up: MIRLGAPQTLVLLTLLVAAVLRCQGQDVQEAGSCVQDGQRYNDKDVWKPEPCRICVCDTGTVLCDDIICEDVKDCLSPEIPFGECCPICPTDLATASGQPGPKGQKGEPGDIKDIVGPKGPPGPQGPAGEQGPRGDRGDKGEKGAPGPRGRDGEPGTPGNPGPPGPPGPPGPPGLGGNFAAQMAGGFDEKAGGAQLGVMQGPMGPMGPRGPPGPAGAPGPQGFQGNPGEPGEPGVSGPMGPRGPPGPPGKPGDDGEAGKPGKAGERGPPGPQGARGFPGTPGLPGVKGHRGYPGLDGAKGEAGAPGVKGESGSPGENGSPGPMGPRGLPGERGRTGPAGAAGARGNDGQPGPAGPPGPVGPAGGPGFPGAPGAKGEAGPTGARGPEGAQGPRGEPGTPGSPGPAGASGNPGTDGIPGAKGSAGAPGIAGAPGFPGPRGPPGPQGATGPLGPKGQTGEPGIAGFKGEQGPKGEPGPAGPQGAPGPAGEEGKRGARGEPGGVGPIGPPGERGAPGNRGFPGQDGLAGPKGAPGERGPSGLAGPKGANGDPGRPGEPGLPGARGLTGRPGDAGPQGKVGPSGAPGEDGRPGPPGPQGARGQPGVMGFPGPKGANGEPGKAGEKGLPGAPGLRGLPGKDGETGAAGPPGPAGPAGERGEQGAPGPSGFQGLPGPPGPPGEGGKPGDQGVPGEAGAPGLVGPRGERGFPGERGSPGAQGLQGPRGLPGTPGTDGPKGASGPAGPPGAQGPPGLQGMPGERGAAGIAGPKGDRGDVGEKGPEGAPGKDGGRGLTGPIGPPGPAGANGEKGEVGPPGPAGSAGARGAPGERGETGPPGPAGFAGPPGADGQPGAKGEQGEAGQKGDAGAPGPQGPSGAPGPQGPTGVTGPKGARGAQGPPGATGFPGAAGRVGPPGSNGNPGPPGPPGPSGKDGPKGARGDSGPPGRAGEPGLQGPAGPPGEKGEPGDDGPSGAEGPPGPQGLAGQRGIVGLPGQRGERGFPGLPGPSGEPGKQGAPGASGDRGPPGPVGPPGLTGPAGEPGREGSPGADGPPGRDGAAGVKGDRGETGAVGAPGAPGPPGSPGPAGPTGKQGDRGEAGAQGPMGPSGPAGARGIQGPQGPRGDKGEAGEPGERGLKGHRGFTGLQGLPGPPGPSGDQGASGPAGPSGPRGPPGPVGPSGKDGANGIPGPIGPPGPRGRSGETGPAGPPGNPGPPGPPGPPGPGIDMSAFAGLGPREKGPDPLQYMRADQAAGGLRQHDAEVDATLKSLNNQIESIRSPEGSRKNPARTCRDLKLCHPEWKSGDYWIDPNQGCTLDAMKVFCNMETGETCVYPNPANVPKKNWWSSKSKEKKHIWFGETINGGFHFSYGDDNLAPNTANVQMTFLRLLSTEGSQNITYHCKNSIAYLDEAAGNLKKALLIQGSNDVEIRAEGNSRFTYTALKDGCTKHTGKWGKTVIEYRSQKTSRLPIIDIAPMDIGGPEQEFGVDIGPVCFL
UniProt P46109: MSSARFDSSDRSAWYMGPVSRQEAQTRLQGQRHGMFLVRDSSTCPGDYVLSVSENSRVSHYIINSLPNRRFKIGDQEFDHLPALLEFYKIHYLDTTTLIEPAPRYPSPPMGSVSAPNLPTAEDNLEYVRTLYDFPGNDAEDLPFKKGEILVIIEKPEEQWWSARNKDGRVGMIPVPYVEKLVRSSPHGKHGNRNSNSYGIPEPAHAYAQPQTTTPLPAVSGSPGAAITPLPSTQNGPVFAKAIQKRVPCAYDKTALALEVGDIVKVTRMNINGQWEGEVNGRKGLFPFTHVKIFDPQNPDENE
UniProt Q9UI42: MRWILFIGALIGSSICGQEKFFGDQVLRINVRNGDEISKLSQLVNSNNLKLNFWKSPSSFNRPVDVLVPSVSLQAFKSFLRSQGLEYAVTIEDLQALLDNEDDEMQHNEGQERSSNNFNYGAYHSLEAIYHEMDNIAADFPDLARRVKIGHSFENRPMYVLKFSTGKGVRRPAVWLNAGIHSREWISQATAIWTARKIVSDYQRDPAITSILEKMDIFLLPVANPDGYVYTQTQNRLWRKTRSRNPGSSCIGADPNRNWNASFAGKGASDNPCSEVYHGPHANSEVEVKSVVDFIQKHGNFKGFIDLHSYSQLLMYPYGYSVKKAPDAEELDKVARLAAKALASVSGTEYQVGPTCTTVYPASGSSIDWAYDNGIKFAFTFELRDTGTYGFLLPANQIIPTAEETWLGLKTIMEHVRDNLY
UniProt Q16526: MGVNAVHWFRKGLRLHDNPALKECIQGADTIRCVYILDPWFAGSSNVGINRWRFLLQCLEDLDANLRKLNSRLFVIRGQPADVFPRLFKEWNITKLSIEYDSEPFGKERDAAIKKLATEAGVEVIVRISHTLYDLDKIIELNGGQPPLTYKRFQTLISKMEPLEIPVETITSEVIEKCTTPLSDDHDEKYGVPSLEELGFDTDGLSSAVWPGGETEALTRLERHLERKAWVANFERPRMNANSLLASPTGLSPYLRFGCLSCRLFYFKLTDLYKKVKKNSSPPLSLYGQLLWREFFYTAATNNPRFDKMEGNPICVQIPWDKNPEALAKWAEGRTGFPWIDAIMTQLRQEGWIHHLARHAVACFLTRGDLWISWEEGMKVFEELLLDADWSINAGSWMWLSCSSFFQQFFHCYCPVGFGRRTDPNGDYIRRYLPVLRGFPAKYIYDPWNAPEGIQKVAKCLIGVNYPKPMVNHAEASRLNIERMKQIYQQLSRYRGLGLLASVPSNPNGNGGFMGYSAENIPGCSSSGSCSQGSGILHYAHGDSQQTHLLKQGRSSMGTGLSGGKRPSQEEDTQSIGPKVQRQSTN
UniProt P78560: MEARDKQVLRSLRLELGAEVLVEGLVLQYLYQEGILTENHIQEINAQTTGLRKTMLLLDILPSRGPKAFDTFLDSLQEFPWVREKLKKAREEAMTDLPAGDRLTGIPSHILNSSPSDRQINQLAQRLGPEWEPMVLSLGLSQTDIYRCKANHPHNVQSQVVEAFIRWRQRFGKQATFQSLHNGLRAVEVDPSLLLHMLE

What was measured:
Test in all cases: log2 fold change, soluble protein after heating vs DMSO (PISA); higher = thermal stabilisation; K562 cells, 10 uM, 30 min; active = over 0.2 and 3.5 SD of the protein, either way, in both replicates (recomputed)
[1] = compound: C1=CC=C(C=C1)[C@H](COC2=CC3=C(C=C2)NC(=O)N3)NC(=O)C4=CC=CN(C4=O)CC5=CC(=C(C=C5)F)F
In short: (§1)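 Soluble protein was defined as the supernatant after 21,000xg for 90 min. It came from K562 cells at 2×10^6 cells/mL given 10 μM compound for 30 min, heated in aliquots for 3 min across 48°C-58°C, pooled, and extracted in PBS with 0.5% NP-40 at 4°C, and was quantified by TMTpro 16plex LC-MS/MS with equalised channel sums. Thermal stability against control samples, from duplicates, is reported as log2 fold change.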

[2] = compound: CC1=C(SC2=C1C(=N[C@H](C3=NN=C(N32)C)CC(=O)N)C4=CC=C(C=C4)Cl)C
In short: as §1

[3] = compound: Cc1sc2c(c1C)C(c1ccc(Cl)cc1)=N[C@@H](CC(=O)OC(C)(C)C)c1nnc(C)n1-2
In short: as §1

[4] = compound: c1ccc([C@@H]2C[C@H]2NC2CCNCC2)cc1
In short: as §1

[5] = compound: CC1=C2C(=CC=C1)N=C(N(C2=O)C3=CC=CC=C3C)CN4C=NC5=C(N=CN=C54)N
In short: as §1

| Target | log2 fold change [1] | log2 fold change [2] | log2 fold change [3] | log2 fold change [4] | log2 fold change [5] |
| --- | --- | --- | --- | --- | --- |
| CRCP (UniProt O75575) | inactive: 0.1 | inactive: 0.025 | inactive: -0.032 | inactive: -0.071 | – |
| COMMD3-BMI1 (UniProt R4GMX3) | – | inactive: -0.114 | inactive: 0.002 | inactive: 0.154 | – |
| CRY2 (UniProt Q49AN0) | inactive: -0.034 | – | inactive: -0.052 | – | inactive: 0.122 |
| CPSF2 (UniProt Q9P2I0) | inactive: -0.096 | – | inactive: 0.101 | – | inactive: 0.013 |
| COX17 (UniProt Q14061) | – | inactive: 0.12 | inactive: -0.073 | inactive: -0.085 | inactive: 0.022 |
| CRABP1 (UniProt P29762) | – | – | – | – | inactive: -0.672 |
| COMMD6 isoform 2 (UniProt Q7Z4G1) | – | – | – | – | inactive: 0.093 |
| CRAT (UniProt P43155) | – | inactive: -0.289 | – | inactive: -0.259 | – |
| CPNE5 (UniProt Q9HCH3) | – | inactive: -0.16 | inactive: 0.146 | inactive: -0.035 | – |
| CORO6 isoform 5 (UniProt Q6QEF8) | – | – | inactive: 0.03 | – | inactive: 0.192 |
| CSGALNACT2 (UniProt Q8N6G5) | inactive: 0.035 | inactive: 0.049 | – | inactive: 0.068 | – |
| COLEC11 isoform 10 (UniProt Q9BWP8) | inactive: 0.024 | inactive: 0.011 | – | inactive: -0.035 | inactive: 0.007 |
| COX7C (UniProt P15954) | inactive: -0.023 | – | inactive: -0.079 | – | inactive: -0.073 |
| CPLX1 (UniProt O14810) | inactive: 0.053 | – | – | – | inactive: 0.067 |
| CRLS1 (UniProt Q9UJA2) | – | inactive: -0.005 | inactive: -0.01 | inactive: 0.003 | inactive: -0.034 |
| COMMD8 (UniProt Q9NX08) | inactive: 0.018 | inactive: 0.068 | inactive: -0.139 | inactive: -0.059 | – |
| CSNK1G2 (UniProt P78368) | – | – | inactive: -0.013 | – | – |
| CRTC2 (UniProt Q53ET0) | inactive: 0.006 | – | inactive: 0.052 | – | inactive: -0.075 |
| COQ10B (UniProt Q9H8M1) | inactive: -0.023 | inactive: 0.078 | – | inactive: -0.006 | – |
| COMMD1 (UniProt Q8N668) | inactive: 0.099 | – | inactive: 0.162 | – | inactive: 0.007 |
| CRYM (UniProt Q14894) | – | inactive: 0.082 | inactive: -0.33 | inactive: 0.084 | – |
| COX14 (UniProt Q96I36) | inactive: 0.065 | inactive: 0.025 | – | inactive: -0.049 | – |
| COL2A1 (UniProt P02458) | – | inactive: -0.249 | inactive: -0.049 | inactive: 0.079 | inactive: 0.193 |
| COL3A1 (UniProt P02461) | – | inactive: 0.077 | inactive: 0.05 | inactive: 0.121 | inactive: -0.341 |
| CRYAB (UniProt P02511) | – | inactive: -0.148 | – | inactive: -0.016 | inactive: 0.221 |
| CRKL (UniProt P46109) | inactive: 0.01 | inactive: 0.041 | inactive: 0.016 | inactive: -0.002 | inactive: 0.032 |
| CPA4 (UniProt Q9UI42) | – | – | inactive: -0.081 | – | inactive: -0.501 |
| CRY1 (UniProt Q16526) | – | – | – | – | inactive: 0.228 |
| CRADD (UniProt P78560) | – | inactive: 0.022 | inactive: -0.092 | inactive: 0.193 | inactive: 0.248 |
| CRTC1 isoform 2 (UniProt Q6UUV9) | inactive: -0.036 | – | inactive: 0.046 | – | inactive: 0.018 |

Not a retest: an excerpt of the list.

| Target | log2 fold change [1] | log2 fold change [2] | log2 fold change [3] | log2 fold change [4] | log2 fold change [5] |
| --- | --- | --- | --- | --- | --- |
| COQ10B (UniProt Q9H8M1) | inactive: -0.023 | inactive: 0.078 | – | inactive: -0.006 | – |
| COMMD1 (UniProt Q8N668) | inactive: 0.099 | – | inactive: 0.162 | – | inactive: 0.007 |
